Measured values from PMC7862700.
The list shows a part of the results, in another mix than the full data. At the low end of the ranking, values are background and their order means little.

By UniProt entry, the sequences of proteins in these tests, tags left out. Where a name states a change or a piece, a line headed by the entry shows the natural chain unless it says otherwise.
UniProt Q01892: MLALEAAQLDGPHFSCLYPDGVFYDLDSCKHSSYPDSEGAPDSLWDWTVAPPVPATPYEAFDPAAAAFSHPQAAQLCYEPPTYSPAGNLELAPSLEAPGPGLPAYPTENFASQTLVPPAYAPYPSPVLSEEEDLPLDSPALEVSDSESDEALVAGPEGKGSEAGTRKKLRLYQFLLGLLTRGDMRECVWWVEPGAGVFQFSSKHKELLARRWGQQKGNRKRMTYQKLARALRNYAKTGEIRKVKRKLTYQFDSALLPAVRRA

Experiments:
Assay in all cases: DAPPL (digital affinity profiling via proximity ligation, sequencing)
Settings in all cases: 10 mM Tris-HCl pH 7.5, 50 mM NaCl, 1 mM DTT, 4% glycerol, room temperature, 30 min; GST-TFs on glutathione beads, 16-mer random dsDNA library, 0.1% …; high values mean tight binding; double strand, one strand shown; scale: fold enrichment (6-mer frequency, TF over GST control)
EHF = target: T1, EHF (UniProt Q9NZC4)
T1 sequence: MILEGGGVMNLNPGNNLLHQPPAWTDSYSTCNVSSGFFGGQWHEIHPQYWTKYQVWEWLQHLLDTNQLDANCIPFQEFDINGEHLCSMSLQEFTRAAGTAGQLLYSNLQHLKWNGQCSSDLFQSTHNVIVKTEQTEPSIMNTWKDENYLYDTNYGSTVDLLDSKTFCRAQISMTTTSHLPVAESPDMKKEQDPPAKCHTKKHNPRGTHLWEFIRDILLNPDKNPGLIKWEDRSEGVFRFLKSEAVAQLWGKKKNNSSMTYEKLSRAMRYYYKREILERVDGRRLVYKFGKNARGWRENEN

SPIB = SPIB (UniProt Q01892)
ETV3L = target: T2, ETV3L (UniProt Q6ZN32)
T2 sequence: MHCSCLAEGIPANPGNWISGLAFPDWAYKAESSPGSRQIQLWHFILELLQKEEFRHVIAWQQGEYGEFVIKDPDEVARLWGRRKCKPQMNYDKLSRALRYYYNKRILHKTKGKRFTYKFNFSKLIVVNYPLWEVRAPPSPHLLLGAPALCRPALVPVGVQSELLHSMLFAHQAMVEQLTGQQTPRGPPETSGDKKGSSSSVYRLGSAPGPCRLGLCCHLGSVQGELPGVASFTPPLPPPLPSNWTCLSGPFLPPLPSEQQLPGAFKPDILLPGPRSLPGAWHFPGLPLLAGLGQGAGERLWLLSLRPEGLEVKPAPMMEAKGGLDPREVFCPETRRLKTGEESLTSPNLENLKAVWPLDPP

Sequence | binding signal (EHF) | binding signal (SPIB) | binding signal (ETV3L)
GCACAC | 0.938 | 0.953 | 1.04
GGCTTG | 0.97 | – | 0.986
CCTGAA | – | 1.42 | 1.35
GGTATC | 0.993 | – | 1.02
CGTAGC | – | – | 1.09
CGCGTA | 0.987 | – | –
CCAAAC | – | 1.06 | 1.12
TTAGGT | – | – | 0.987
TTGTCA | – | 1.21 | 1.17
CACAAA | 1.11 | 1.04 | 1.16
TCGTCA | 1.02 | – | 0.968
CCACAT | 1.21 | – | –
CGGTAT | – | 1.07 | 0.978
TGTACA | – | 1.35 | 1.23
CACGCA | – | 1.01 | 0.969
TCCGTT | – | – | 1.46
CCTGTG | 0.972 | – | –
TGTCCG | – | 1.56 | 1.4

Complete entries, quoted from the list.
CACGCA in the list: binding signal (SPIB): 1.01; binding signal (ETV3L): 0.969
CGTAGC in the list: binding signal (ETV3L): 1.09

(continued)

Sequence | binding signal (EHF) | binding signal (SPIB) | binding signal (ETV3L)
AGTGTC | – | – | 0.997
CCAAGC | – | 0.914 | 1.01
GGTTTG | 1.22 | – | –
AGATTT | – | 1.09 | 1.17
AAGTGT | 1.24 | – | –
ATAGAT | 1.17 | – | 1.25
GCCCAA | 1 | – | –
TTAAGG | 1.13 | – | –
TGCGCC | – | 1.27 | 1.27
ATGGCA | 1.35 | – | 1.2
CCCATC | 1.17 | 1.18 | 1.15
ACTATG | 1.25 | – | –
CGCACG | 0.983 | – | 1.01
GGACCT | 1.35 | – | –
TCATGT | – | 0.997 | 1.15
GGTTCC | 1.59 | 1.59 | 1.46
GCTACG | – | 1.16 | 1.16
CCCTGA | 0.989 | – | –
